Experimental data published in the supplement of paper PMC10849652.
Some of the results follow.

Protein sequences, listed by entry. Tags and fused reporters are not part of them. Lines headed by an entry give the natural chain unless they say otherwise; changes in a name come on top.
UniProt Q7Z4W1: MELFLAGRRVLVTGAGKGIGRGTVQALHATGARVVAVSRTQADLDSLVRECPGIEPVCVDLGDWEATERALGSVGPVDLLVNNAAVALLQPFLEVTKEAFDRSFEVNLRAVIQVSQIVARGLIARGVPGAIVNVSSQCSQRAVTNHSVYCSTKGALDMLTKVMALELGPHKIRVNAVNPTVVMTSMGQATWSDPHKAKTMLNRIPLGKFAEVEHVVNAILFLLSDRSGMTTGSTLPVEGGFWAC
UniProt Q7Z401: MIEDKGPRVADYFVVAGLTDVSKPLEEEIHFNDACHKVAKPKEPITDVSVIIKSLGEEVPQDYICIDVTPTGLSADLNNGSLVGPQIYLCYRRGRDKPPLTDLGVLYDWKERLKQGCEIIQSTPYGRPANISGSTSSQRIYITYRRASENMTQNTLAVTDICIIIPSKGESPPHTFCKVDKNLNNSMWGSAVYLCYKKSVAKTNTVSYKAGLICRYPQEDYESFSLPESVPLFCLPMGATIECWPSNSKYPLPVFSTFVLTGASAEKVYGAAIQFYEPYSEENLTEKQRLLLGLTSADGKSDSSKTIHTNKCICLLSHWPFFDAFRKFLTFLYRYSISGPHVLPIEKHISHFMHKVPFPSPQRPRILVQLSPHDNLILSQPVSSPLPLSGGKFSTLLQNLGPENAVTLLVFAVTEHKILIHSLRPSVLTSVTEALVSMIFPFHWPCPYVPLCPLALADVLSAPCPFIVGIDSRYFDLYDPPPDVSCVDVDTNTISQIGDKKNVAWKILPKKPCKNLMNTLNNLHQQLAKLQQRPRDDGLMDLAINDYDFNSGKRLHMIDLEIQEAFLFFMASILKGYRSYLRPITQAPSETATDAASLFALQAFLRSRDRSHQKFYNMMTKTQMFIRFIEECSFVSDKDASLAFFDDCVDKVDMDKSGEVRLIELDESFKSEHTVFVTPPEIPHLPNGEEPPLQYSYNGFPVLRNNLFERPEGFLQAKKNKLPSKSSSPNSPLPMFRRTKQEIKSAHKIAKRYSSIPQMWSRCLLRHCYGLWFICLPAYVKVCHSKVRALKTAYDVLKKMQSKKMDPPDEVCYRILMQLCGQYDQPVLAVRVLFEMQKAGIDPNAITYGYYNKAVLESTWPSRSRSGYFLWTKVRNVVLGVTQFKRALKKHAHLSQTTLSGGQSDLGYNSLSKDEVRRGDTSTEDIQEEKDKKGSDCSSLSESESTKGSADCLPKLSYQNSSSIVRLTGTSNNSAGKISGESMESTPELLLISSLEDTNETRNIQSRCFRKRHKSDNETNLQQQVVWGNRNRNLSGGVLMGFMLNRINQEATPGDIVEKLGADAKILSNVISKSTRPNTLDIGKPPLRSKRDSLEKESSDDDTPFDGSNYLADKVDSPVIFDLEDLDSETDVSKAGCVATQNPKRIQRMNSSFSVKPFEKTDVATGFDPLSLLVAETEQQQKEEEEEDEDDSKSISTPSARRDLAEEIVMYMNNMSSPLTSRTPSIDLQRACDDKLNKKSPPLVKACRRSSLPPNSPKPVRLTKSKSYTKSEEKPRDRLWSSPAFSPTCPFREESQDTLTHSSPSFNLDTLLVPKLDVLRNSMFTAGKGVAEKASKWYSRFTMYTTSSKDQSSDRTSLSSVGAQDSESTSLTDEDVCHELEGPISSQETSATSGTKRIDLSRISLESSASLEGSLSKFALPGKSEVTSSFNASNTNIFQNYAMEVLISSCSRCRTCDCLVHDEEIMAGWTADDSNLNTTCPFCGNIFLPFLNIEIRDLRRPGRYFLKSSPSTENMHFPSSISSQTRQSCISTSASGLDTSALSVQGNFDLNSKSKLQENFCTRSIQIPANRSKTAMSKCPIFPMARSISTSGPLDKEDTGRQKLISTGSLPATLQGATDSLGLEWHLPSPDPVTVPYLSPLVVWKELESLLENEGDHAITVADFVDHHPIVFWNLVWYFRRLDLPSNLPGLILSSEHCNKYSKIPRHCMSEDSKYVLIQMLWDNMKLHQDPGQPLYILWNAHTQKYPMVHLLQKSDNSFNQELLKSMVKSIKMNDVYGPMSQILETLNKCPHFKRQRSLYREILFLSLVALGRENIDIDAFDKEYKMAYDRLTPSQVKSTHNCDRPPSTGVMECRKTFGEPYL
UniProt Q9BTE1, whole entry, looked up: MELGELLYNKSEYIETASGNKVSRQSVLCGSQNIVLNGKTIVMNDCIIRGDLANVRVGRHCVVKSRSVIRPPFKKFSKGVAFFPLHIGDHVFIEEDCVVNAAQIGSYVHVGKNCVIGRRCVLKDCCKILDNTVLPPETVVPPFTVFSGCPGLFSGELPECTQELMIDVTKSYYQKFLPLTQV
UniProt Q9H8H2: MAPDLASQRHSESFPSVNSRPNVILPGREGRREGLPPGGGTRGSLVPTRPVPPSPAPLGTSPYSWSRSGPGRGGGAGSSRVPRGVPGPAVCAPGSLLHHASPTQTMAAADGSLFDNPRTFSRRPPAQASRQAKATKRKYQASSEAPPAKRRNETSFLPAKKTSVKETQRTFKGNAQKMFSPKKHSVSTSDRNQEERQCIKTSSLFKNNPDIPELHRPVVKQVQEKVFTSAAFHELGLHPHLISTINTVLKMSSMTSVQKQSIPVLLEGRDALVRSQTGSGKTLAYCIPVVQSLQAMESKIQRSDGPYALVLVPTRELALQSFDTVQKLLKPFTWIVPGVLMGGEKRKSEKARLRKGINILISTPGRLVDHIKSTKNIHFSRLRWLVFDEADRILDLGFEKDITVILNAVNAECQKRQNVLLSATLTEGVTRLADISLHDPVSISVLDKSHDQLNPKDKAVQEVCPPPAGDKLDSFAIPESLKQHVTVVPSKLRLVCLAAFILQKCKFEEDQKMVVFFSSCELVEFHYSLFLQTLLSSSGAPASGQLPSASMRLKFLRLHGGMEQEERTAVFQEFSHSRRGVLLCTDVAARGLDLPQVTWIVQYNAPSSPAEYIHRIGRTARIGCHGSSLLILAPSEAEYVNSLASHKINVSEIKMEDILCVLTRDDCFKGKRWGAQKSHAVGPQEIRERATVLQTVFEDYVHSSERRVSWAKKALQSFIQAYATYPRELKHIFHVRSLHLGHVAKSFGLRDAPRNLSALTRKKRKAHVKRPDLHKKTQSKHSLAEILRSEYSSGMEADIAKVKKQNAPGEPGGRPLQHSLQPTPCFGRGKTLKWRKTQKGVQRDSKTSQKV
UniProt Q96C86: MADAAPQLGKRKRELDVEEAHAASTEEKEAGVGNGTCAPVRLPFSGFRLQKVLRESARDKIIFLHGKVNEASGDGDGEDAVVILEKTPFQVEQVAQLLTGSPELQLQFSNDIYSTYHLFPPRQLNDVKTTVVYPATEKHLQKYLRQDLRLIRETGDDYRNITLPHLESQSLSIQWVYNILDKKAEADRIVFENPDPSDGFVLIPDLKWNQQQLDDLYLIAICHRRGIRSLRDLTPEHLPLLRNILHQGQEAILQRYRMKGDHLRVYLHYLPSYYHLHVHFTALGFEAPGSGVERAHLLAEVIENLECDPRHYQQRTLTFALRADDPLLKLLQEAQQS
UniProt Q9UJW0, whole entry, looked up: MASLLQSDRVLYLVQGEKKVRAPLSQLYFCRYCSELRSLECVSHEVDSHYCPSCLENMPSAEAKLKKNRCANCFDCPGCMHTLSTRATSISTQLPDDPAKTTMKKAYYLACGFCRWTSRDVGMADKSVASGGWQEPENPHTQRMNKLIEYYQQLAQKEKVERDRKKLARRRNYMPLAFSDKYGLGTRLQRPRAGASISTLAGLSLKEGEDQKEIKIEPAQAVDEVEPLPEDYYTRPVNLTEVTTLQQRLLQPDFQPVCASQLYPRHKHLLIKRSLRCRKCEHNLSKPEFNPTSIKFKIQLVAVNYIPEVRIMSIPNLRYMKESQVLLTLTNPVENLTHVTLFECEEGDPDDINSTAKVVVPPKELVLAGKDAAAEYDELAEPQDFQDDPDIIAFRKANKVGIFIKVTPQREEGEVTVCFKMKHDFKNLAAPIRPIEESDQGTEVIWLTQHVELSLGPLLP
UniProt O00399, whole entry, looked up: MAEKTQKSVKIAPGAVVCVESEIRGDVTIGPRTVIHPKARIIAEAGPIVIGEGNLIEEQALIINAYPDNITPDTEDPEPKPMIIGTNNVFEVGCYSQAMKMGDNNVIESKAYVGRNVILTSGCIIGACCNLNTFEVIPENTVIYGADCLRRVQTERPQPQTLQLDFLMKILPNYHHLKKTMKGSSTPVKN
UniProt Q8NEL9: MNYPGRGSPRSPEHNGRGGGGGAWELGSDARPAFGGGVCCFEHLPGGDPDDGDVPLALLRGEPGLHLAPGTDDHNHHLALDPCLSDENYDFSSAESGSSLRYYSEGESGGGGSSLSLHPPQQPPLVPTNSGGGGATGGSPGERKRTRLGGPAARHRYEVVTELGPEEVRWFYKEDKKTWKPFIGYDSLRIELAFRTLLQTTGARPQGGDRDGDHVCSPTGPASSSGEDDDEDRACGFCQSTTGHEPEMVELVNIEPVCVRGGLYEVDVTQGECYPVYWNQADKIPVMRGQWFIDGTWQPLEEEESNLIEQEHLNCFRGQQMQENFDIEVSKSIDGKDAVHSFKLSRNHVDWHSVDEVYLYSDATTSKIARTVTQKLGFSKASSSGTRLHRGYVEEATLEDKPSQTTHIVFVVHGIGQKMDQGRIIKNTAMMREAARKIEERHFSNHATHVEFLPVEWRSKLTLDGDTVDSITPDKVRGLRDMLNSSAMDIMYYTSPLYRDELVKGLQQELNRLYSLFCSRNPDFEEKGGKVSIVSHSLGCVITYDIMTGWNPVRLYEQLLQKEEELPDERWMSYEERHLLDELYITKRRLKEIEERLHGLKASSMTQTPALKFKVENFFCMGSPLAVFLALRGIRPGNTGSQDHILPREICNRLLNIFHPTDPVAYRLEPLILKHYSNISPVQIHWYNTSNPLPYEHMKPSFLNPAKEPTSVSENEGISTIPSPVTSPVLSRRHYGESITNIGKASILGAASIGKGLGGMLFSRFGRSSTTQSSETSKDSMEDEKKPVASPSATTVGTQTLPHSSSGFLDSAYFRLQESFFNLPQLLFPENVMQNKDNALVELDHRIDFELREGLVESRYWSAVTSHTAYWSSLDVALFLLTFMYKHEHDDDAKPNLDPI
UniProt Q9NXF7, whole entry, looked up: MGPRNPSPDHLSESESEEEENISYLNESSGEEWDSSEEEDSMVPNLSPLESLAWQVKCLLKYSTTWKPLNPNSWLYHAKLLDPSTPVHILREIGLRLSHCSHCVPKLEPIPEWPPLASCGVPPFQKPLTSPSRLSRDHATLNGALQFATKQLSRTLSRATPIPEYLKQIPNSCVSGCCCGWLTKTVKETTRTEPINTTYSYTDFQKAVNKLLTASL
UniProt Q8NCG7: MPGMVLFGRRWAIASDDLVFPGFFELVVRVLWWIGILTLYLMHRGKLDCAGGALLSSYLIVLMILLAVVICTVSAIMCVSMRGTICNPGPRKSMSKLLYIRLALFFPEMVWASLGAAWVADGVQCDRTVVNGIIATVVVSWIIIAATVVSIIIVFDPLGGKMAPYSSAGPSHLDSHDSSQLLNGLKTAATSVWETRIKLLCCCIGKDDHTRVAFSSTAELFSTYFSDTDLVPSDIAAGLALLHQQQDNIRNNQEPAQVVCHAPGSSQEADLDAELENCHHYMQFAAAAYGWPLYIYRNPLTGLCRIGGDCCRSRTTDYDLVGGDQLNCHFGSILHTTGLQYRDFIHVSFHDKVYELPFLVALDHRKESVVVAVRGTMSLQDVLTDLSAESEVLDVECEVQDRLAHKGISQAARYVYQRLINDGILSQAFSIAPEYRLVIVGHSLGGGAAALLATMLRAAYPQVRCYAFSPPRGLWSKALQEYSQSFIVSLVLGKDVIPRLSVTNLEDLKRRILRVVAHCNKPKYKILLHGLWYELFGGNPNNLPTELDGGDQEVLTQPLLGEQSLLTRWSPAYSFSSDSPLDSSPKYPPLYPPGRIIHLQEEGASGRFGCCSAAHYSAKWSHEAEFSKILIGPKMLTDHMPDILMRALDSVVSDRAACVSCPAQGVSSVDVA
UniProt Q9Y2R4: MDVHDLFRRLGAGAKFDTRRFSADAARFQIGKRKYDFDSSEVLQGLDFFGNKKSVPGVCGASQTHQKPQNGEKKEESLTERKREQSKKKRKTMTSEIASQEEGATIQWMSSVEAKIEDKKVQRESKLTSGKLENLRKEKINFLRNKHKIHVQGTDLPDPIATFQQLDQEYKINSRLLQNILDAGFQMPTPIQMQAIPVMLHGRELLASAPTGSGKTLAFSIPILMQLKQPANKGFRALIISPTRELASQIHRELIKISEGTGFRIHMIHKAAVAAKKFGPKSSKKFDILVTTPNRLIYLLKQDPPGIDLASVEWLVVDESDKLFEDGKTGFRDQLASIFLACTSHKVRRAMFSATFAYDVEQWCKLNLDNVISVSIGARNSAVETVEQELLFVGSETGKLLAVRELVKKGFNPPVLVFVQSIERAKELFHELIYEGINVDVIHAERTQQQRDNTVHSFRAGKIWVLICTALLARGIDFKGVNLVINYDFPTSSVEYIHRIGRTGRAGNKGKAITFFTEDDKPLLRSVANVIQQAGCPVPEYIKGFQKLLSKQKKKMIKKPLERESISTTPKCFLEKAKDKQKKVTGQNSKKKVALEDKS

Key:
Test in all cases: log2 fold change, soluble protein after heating vs DMSO (PISA); higher = thermal stabilisation; K562 lysate, 10 uM; active = over 0.2 and 3.5 SD of the protein, either way, in both replicates (recomputed)
alvocidib = compound: CN1CC[C@H](c2c(O)cc(O)c3c(=O)cc(-c4ccccc4Cl)oc23)[C@H](O)C1 [alvocidib]
Method in brief: (§1)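 Log-two fold change in thermal stability relative to solvent controls is reported from duplicates. For each sample, crude K562 extract from dounce-homogenised pellets in PBS pH 7.4 with 1 mM MgCl2, at 1 mg/mL protein, was treated with 10 μM compound for 30 min. Aliquots heated for 3 min across 48°C-58°C were pooled, brought to 0.5% NP-40 at 4°C and cleared at 21,000xg for 90 min. The supernatant was quantified by TMTpro 16plex LC-MS/MS with channel sums equalised.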

Tubastatin A = compound: CN1CCc2c(c3ccccc3n2Cc2ccc(C(=O)NO)cc2)C1 [Tubastatin A]
Method in brief: as §1

[1] = compound: CNC(=O)C1=CC=CC=C1NC2=NC(=NC=C2Cl)NC3=C(C=C(C=C3)N4CCOCC4)OC
Method in brief: as §1

defactinib = compound: CNC(=O)c1ccc(Nc2ncc(C(F)(F)F)c(NCc3nccnc3N(C)S(C)(=O)=O)n2)cc1 [defactinib]
Method in brief: as §1

[2] = compound: CNc1nc(-c2ccc3c(N)n[nH]c3c2)cc(N2C[C@@H](C(=O)NC3CCCCC3)CC[C@H]2C)n1
Method in brief: as §1

encorafenib = compound: COC(=O)N[C@@H](C)CNc1nccc(-c2cn(C(C)C)nc2-c2cc(Cl)cc(NS(C)(=O)=O)c2F)n1 [encorafenib]
Method in brief: as §1

[3] = compound: COC(=O)[C@H](CCSC)NC(=O)C1=C(C=C(C=C1)NC[C@H](CS)N)C2=CC=CC=C2
Method in brief: as §1

alisertib = compound: COc1cc(Nc2ncc3c(n2)-c2ccc(Cl)cc2C(c2c(F)cccc2OC)=NC3)ccc1C(=O)O [alisertib]
Method in brief: as §1

[4] = compound: COc1cc2nc(-c3cc(F)ccc3O)nc(N[C@@H]3CNC[C@H]3C(C)(C)O)c2cc1OC
Method in brief: as §1

gefitinib = compound: COc1cc2ncnc(Nc3ccc(F)c(Cl)c3)c2cc1OCCCN1CCOCC1 [gefitinib]
Method in brief: as §1

lapatinib = compound: CS(=O)(=O)CCNCc1ccc(-c2ccc3ncnc(Nc4ccc(OCc5cccc(F)c5)c(Cl)c4)c3c2)o1 [lapatinib]
Method in brief: as §1

pictilisib = compound: CS(=O)(=O)N1CCN(Cc2cc3nc(-c4cccc5[nH]ncc45)nc(N4CCOCC4)c3s2)CC1 [pictilisib]
Method in brief: as §1

crizotinib = compound: C[C@@H](Oc1cc(-c2cnn(C3CCNCC3)c2)cnc1N)c1c(Cl)ccc(F)c1Cl [crizotinib]
Method in brief: as §1

[5] = compound: C[C@H](C1=CC=C(C=C1)C(=O)NC2=C3C=CNC3=NC=C2)N
Method in brief: as §1

duvelisib = compound: C[C@H](Nc1ncnc2nc[nH]c12)c1cc2cccc(Cl)c2c(=O)n1-c1ccccc1 [duvelisib]
Method in brief: as §1

gandotinib = compound: Cc1cc(Nc2cc(CN3CCOCC3)c3nc(C)c(Cc4ccc(Cl)cc4F)n3n2)n[nH]1 [gandotinib]
Method in brief: as §1

tozasertib = compound: Cc1cc(Nc2cc(N3CCN(C)CC3)nc(Sc3ccc(NC(=O)C4CC4)cc3)n2)n[nH]1 [tozasertib]
Method in brief: as §1

doramapimod = compound: Cc1ccc(-n2nc(C(C)(C)C)cc2NC(=O)Nc2ccc(OCCN3CCOCC3)c3ccccc23)cc1 [doramapimod]
Method in brief: as §1

bafetinib = compound: Cc1ccc(NC(=O)c2ccc(CN3CC[C@H](N(C)C)C3)c(C(F)(F)F)c2)cc1Nc1nccc(-c2cncnc2)n1 [bafetinib]
Method in brief: as §1

[6] = compound: Cc1cccc(CC(=O)N2CCc3c2ccc(-c2cn(C)c4ncnc(N)c24)c3F)n1
Method in brief: as §1

Measured: log2 fold change

CYSTM1 (UniProt Q9H1C7)
inactive: alvocidib -0.038 | Tubastatin A 0.127 | [1] -0.019 | defactinib 0.066 | [2] 0.202 | encorafenib 0.161 | [3] -0.215 | alisertib -0.057 | [4] 0.036 | gefitinib 0.156 | lapatinib -0.019 | pictilisib -0.178 | crizotinib -0.122 | [5] -0.027 | duvelisib -0.078 | gandotinib 0.105 | tozasertib 0.172 | doramapimod 0.154 | bafetinib 0.206 | [6] 0.035

DCXR (UniProt Q7Z4W1)
inactive: alvocidib -0.047 | Tubastatin A 0.003 | [1] -0.011 | defactinib -0.009 | [2] 0.017 | encorafenib -0.019 | [3] 0.002 | alisertib 0.026 | [4] -0.022 | gefitinib -0.005 | lapatinib -0.014 | pictilisib -0.031 | crizotinib 0.009 | [5] -0.046 | duvelisib -0.004 | gandotinib 0.007 | tozasertib -0.015 | doramapimod 0.037 | bafetinib -0.059 | [6] 0.011

DENND4A isoform 2 (UniProt Q7Z401)
inactive: alvocidib -0.067 | Tubastatin A -0.141 | [1] -0.024 | defactinib 0.077 | [2] -0.001 | encorafenib 0.013 | [3] 0.032 | alisertib -0.018 | [4] 0.17 | gefitinib -0.041 | lapatinib -0.034 | pictilisib 0.001 | crizotinib -0.038 | [5] -0.206 | duvelisib -0.067 | gandotinib 0.045 | tozasertib -0.027 | doramapimod -0.009 | bafetinib -0.064 | [6] 0.203

DCTN5 (UniProt Q9BTE1)
inactive: alvocidib 0.01 | Tubastatin A 0.076 | [1] -0.064 | defactinib -0.172 | [2] 0.089 | encorafenib -0.11 | [3] 0.032 | alisertib -0.027 | [4] 0.035 | gefitinib -0.011 | lapatinib 0.042 | pictilisib 0.055 | crizotinib 0.076 | [5] -0.01 | duvelisib -0.016 | gandotinib 0.012 | tozasertib 0.104 | doramapimod -0.028 | bafetinib 0.205 | [6] -0.032

DDX31 (UniProt Q9H8H2)
inactive: alvocidib 0.027 | Tubastatin A -0.089 | [1] -0.015 | defactinib 0.008 | [2] -0.015 | encorafenib 0.072 | [3] -0.034 | alisertib 0.028 | [4] -0.034 | gefitinib -0.018 | lapatinib 0.028 | pictilisib -0.002 | crizotinib -0.11 | [5] -0.084 | duvelisib 0.042 | gandotinib -0.029 | tozasertib 0.035 | doramapimod -0.012 | bafetinib -0.016 | [6] 0.098

DCPS (UniProt Q96C86)
inactive: alvocidib 0.008 | Tubastatin A 0.026 | [1] 0.014 | defactinib -0.015 | [2] -0.012 | encorafenib -0.065 | [3] 0.074 | alisertib -0.031 | [4] 0.024 | gefitinib -0.026 | lapatinib -0.002 | pictilisib -0.055 | crizotinib -0.023 | [5] -0.029 | duvelisib 0.007 | gandotinib 0.032 | tozasertib -0.034 | doramapimod 0.002 | bafetinib -0.036 | [6] 0

DCTN4 (UniProt Q9UJW0)
inactive: alvocidib -0.014 | Tubastatin A 0.025 | [1] 0.012 | defactinib 0.022 | [2] 0.024 | encorafenib 0.024 | [3] -0.032 | alisertib -0.002 | [4] 0.005 | gefitinib -0.044 | lapatinib 0.008 | pictilisib 0.022 | crizotinib 0.018 | [5] -0.009 | duvelisib 0.046 | gandotinib 0.033 | tozasertib 0.048 | doramapimod 0.043 | bafetinib 0.029 | [6] 0

Quoted from the listing (4 entries):
CYSTM1 (UniProt Q9H1C7)
inactive: alvocidib -0.038 | Tubastatin A 0.127 | [1] -0.019 | defactinib 0.066 | [2] 0.202 | encorafenib 0.161 | [3] -0.215 | alisertib -0.057 | [4] 0.036 | gefitinib 0.156 | lapatinib -0.019 | pictilisib -0.178 | crizotinib -0.122 | [5] -0.027 | duvelisib -0.078 | gandotinib 0.105 | tozasertib 0.172 | doramapimod 0.154 | bafetinib 0.206 | [6] 0.035

DCXR (UniProt Q7Z4W1)
inactive: alvocidib -0.047 | Tubastatin A 0.003 | [1] -0.011 | defactinib -0.009 | [2] 0.017 | encorafenib -0.019 | [3] 0.002 | alisertib 0.026 | [4] -0.022 | gefitinib -0.005 | lapatinib -0.014 | pictilisib -0.031 | crizotinib 0.009 | [5] -0.046 | duvelisib -0.004 | gandotinib 0.007 | tozasertib -0.015 | doramapimod 0.037 | bafetinib -0.059 | [6] 0.011

DENND4A isoform 2 (UniProt Q7Z401)
inactive: alvocidib -0.067 | Tubastatin A -0.141 | [1] -0.024 | defactinib 0.077 | [2] -0.001 | encorafenib 0.013 | [3] 0.032 | alisertib -0.018 | [4] 0.17 | gefitinib -0.041 | lapatinib -0.034 | pictilisib 0.001 | crizotinib -0.038 | [5] -0.206 | duvelisib -0.067 | gandotinib 0.045 | tozasertib -0.027 | doramapimod -0.009 | bafetinib -0.064 | [6] 0.203

DCTN5 (UniProt Q9BTE1)
inactive: alvocidib 0.01 | Tubastatin A 0.076 | [1] -0.064 | defactinib -0.172 | [2] 0.089 | encorafenib -0.11 | [3] 0.032 | alisertib -0.027 | [4] 0.035 | gefitinib -0.011 | lapatinib 0.042 | pictilisib 0.055 | crizotinib 0.076 | [5] -0.01 | duvelisib -0.016 | gandotinib 0.012 | tozasertib 0.104 | doramapimod -0.028 | bafetinib 0.205 | [6] -0.032

Additional results:

DCTN6 (UniProt O00399)
inactive: alvocidib 0.002 | Tubastatin A 0.009 | [1] 0.025 | defactinib 0.019 | [2] 0.006 | encorafenib 0.002 | [3] -0.073 | alisertib -0.095 | [4] -0.052 | gefitinib -0.018 | lapatinib 0.004 | pictilisib -0.005 | crizotinib 0.068 | [5] 0.002 | duvelisib -0.009 | gandotinib -0.02 | tozasertib -0.014 | doramapimod -0.009 | bafetinib -0.07 | [6] 0.004

DDHD1 (UniProt Q8NEL9)
inactive: alvocidib -0.046 | Tubastatin A -0.111 | [1] -0.05 | defactinib -0.067 | [2] 0.001 | encorafenib 0.051 | [3] -0.059 | alisertib 0.055 | [4] 0.016 | gefitinib -0.068 | lapatinib -0.06 | pictilisib 0.096 | crizotinib -0.116 | [5] -0.019 | duvelisib -0.045 | gandotinib 0.077 | tozasertib 0.052 | doramapimod 0.031 | bafetinib 0.015 | [6] 0.054

DCAF16 (UniProt Q9NXF7)
inactive: alvocidib 0.098 | Tubastatin A 0.135 | [1] 0.038 | defactinib 0.052 | [2] 0.051 | encorafenib -0.022 | [3] 0.137 | alisertib 0.013 | [4] 0.034 | gefitinib -0.103 | lapatinib -0.012 | pictilisib 0.048 | crizotinib -0.072 | [5] 0.128 | duvelisib 0.031 | gandotinib -0.092 | tozasertib -0.139 | doramapimod -0.035 | bafetinib -0.017 | [6] -0.057

DDHD2 (UniProt O94830)
inactive: alvocidib 0.038 | Tubastatin A -0.013 | [1] 0.04 | defactinib 0.032 | [2] 0.011 | encorafenib 0.048 | [3] -0.155 | alisertib 0.002 | [4] 0.018 | gefitinib -0.014 | lapatinib 0.011 | pictilisib -0.004 | crizotinib -0.039 | [5] -0.004 | duvelisib 0.004 | gandotinib -0.043 | tozasertib 0.014 | doramapimod 0.028 | bafetinib -0.011 | [6] -0.012

DAGLB (UniProt Q8NCG7)
inactive: alvocidib 0.029 | Tubastatin A 0.04 | [1] -0.013 | defactinib 0.023 | [2] -0.011 | encorafenib -0.001 | [3] 0.066 | alisertib 0.041 | [4] 0.075 | gefitinib 0.067 | lapatinib -0.003 | pictilisib 0.011 | crizotinib 0.046 | [5] -0.009 | duvelisib -0.05 | gandotinib -0.072 | tozasertib 0.035 | doramapimod 0.059 | bafetinib -0.031 | [6] -0.042

DDAH2 (UniProt O95865)
inactive: alvocidib 0.066 | Tubastatin A 0 | [1] 0.028 | defactinib 0.027 | [2] -0.011 | encorafenib -0.02 | [3] -0.005 | alisertib -0.008 | [4] -0.036 | gefitinib 0.009 | lapatinib 0.049 | pictilisib -0.028 | crizotinib 0.025 | [5] 0.101 | duvelisib -0.028 | gandotinib -0.097 | tozasertib 0.026 | doramapimod 0.053 | bafetinib -0.003 | [6] -0.091

DCUN1D4 isoform 3 (UniProt Q92564)
inactive: alvocidib -0.276 | Tubastatin A 0.081 | [1] 0.003 | defactinib 0.014 | [2] 0.035 | encorafenib 0.034 | [3] 0.131 | alisertib 0.055 | [4] -0.043 | gefitinib -0.049 | lapatinib 0.072 | pictilisib 0.046 | crizotinib -0.02 | [5] 0.001 | duvelisib 0.02 | gandotinib -0.104 | tozasertib -0.009 | doramapimod 0.004 | bafetinib -0.003 | [6] -0.039

DDX52 (UniProt Q9Y2R4)
inactive: alvocidib -0.042 | Tubastatin A -0.086 | [1] 0.129 | defactinib 0.027 | [2] -0.013 | encorafenib 0.054 | [3] -0.048 | alisertib -0.036 | [4] 0.031 | gefitinib 0.063 | lapatinib 0.049 | pictilisib 0.109 | crizotinib -0.039 | [5] -0.001 | duvelisib -0.031 | gandotinib 0.076 | tozasertib -0.131 | doramapimod 0.202 | bafetinib -0.125 | [6] 0.033

DEK (UniProt P35659)
inactive: alvocidib 0.017 | Tubastatin A -0.004 | [1] 0.017 | defactinib -0.005 | [2] 0.027 | encorafenib -0.013 | [3] -0.003 | alisertib -0.004 | [4] 0 | gefitinib -0.002 | lapatinib -0.008 | pictilisib 0.004 | crizotinib 0.037 | [5] -0.009 | duvelisib -0.009 | gandotinib 0.006 | tozasertib -0.016 | doramapimod -0.035 | bafetinib 0.004 | [6] -0.02
